These are yes or no findings as the source states them, for the method shown. In cells and extracts the contact can be indirect. A yes stands for co-enrichment or nearness to the bait. Other partners may have been found. Tags and fused reporters may be left off the sequences shown.
Target: T1, Flag-tagged wild-type OTUD5 (human) (UniProt Q96G74)
T1 sequence: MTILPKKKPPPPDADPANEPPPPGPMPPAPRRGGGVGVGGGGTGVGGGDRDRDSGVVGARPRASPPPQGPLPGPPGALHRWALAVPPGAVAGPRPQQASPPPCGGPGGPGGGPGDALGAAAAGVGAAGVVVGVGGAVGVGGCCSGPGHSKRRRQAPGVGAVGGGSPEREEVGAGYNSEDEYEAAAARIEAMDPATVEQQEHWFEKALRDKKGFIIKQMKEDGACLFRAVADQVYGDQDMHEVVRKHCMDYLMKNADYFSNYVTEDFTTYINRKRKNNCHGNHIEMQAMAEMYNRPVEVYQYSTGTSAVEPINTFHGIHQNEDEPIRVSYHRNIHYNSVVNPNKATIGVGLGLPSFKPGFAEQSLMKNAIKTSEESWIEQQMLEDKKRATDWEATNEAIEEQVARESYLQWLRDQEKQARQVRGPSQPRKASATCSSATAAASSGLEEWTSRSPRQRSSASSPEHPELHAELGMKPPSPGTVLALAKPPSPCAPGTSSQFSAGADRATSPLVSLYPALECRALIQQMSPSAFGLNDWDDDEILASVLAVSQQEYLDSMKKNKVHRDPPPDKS
Assay: affinity purification with mass spectrometry; nuclear extracts of the stable Flag-OTUD5/Hep3B cell line, Flag M2 immunoprecipitation, LC-MS/MS of the OTUD5-associated proteins

By UniProt entry, the sequences of proteins in these tests, tags left out.
UniProt Q14258: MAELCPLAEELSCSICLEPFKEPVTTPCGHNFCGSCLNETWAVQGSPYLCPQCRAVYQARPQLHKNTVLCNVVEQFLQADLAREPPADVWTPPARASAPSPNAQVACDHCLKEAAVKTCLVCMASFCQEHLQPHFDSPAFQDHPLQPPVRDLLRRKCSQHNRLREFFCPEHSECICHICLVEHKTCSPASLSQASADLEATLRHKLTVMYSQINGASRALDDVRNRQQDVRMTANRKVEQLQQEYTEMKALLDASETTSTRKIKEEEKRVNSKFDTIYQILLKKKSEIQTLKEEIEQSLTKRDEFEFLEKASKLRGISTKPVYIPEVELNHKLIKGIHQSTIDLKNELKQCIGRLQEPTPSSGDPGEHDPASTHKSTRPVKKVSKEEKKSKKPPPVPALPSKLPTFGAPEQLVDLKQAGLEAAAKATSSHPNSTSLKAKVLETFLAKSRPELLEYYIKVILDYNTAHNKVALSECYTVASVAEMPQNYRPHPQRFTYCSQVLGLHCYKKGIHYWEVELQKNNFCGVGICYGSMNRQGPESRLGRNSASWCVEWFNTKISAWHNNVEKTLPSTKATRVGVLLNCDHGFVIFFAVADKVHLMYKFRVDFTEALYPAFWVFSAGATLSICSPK

binding: binds
Substance: TRIM25 E3 ubiquitin ligase (from UniProt Q14258 1-630)
